This experiment addresses Drosophila TRIM32 (Drosophila melanogaster (endogenous in L3 larvae)). Kind of experiment: co-IP; anti-TRIM32 antibody on Protein A Sepharose, 2 mg WT L3 larval lysate, 2 hr at 4°C; washed five times in 1M NaCl, 1% Triton, PBS; Western blot. For orientation: In western blotting, separated proteins are transferred to a membrane and probed.

No constants are given. Whether binding was seen depends on the method and setting. In cells and extracts the contact can be indirect. Binding calls can cover weak binding; strength is not graded here.

B1: Aldolase (Ald), endogenous (enzyme, UniProt P07764 1-361)
chain: MTTYFNYPSKELQDELREIAQKIVAPGKGILAADESGPTMGKRLQDIGVENTEDNRRAYRQLLFSTDPKLAENISGVILFHETLYQKADDGTPFAEILKKKGIILGIKVDKGVVPLFGSEDEVTTQGLDDLAARCAQYKKDGCDFAKWRCVLKIGKNTPSYQSILENANVLARYASICQSQRIVPIVEPEVLPDGDHDLDRAQKVTETVLAAVYKALSDHHVYLEGTLLKPNMVTAGQSAKKNTPEEIALATVQALRRTVPAAVTGVTFLSGGQSEEEATVNLSAINNVPLIRPWALTFSYGRALQASVLRAWAGKKENIAAGQNELLKRAKANGDAAQGKYVAGSAGAGSGSLFVANHAY
For the molecule B1, the binding entry was “binds”.

B2: Phosphoglycerate mutase 78 (Pglym), endogenous (enzyme, UniProt Q9VAN7 1-255)
chain: MGGKYKIVMVRHGESEWNQKNQFCGWYDANLSEKGQEEALAAGKAVKDAGLEFDVAHTSVLTRAQVTLASILKASGHKEIPIQKTWRLNERHYGGLTGLNKAETAAKYGEAQVQIWRRSFDTPPPPMEPGHPYYENIVKDPRYAEGPKPEEFPQFESLKLTIERTLPYWNDVIIPQMKEGKRILIAAHGNSLRGIVKHLDNLSEDAIMALNLPTGIPFVYELDENFKPVVSMQFLGDEETVKKAIEAVAAQGKAK
As for B2, the binding entry is on record as “binds”.
